Measurements taken from US20240270727A1, “NEW SUBSTITUTED PYRIDINES AS FUNGICIDE” (BASF SE, priority 2021, published 2024).
Some entries share one result that the patent states for a list of compounds. For some assays here: For at least one compound, name, drawing or mass did not settle the structure.

Legend:
Botrytis cinerea [1] = assay: Example 4: activity against the grey mold Botrytis cinerea in the microtiterplate test; type: cell-based; details: 31 ppm, relative to active compound-free control (100%)
Monilinia laxa = assay: Example 11: activity against Monilinia laxa in the microtiterplate test; details: 31 ppm, DOB media pH 7
Microdochium nivale = assay: Example 7: activity against Microdochium nivale in the microtiterplate test; details: 31 ppm, DOB media pH 7
Leptosphaeria nodorum = assay: Example 9: activity against Leptosphaeria nodorum in the microtiterplate test; details: 31 ppm, DOB media pH 7
[2] = tested on: Colletotrichum orbiculare; assay: Example 8: activity against Colletotrichum orbiculare in the microtiterplate test; details: 31 ppm, DOB media pH 7
Botrytis cinerea [3] = assay: Example 19: preventative fungicidal control of Botrytis cinerea on leaves of green pepper (green house); type: in vivo; details: 250 ppm spray, inoculated next day, assessed after 5 days, untreated plants 90% infected
Sclerotinia sclerotiorum = assay: Example 20: preventative fungicidal control of white mold on oilseed rape caused by Sclerotinia sclerotiorum (green house); type: in vivo; details: 100 g/ha, assessed after 14 days, untreated plants 100% infected
Leptosphaeria maculans = assay: Example 14: activity against Leptosphaeria maculans in the microtiterplate test; details: 31 ppm, DOB media pH 7
Mycosphaerella fijiensis = assay: Example 16: activity against Mycosphaerella fijiensis in the microtiterplate test; details: 31 ppm, DOB media pH 7
Venturia inaequalis = assay: Example 3: activity against Venturia inaequalis in the microtiterplate test; type: cell-based; details: 31 ppm, relative to active compound-free control (100%)

Row | Compound | growth of the pathogen (Botrytis cinerea [1]) [%] | growth of the pathogen (Monilinia laxa) [%] | growth of the pathogen (Microdochium nivale) [%] | growth of the pathogen (Leptosphaeria nodorum) [%] | growth of the pathogen [2] [%] | growth of the pathogen (fungal attack assessed as % diseased leaf area) (Botrytis cinerea [3]) | growth of the pathogen (fungal attack assessed as % diseased leaf area) (Sclerotinia sclerotiorum) | growth of the pathogen (Leptosphaeria maculans) [%] | growth of the pathogen (Mycosphaerella fijiensis) [%] | growth of the pathogen (Venturia inaequalis) [%]
1 | COCC1(C)CN=C(c2cnc(C(F)F)c(C)c2)c2ccccc2O1 (racemic) [Ex-52 and Ex-53 as racemat] | ≤ 1 | ≤ 20 | ≤ 19 | ≤ 12 | ≤ 15 |  |  |  |  | 
2 | Cc1cc(C2=NCC(C)(C)Oc3ccccc32)cnc1C [Ex-2] |  | ≤ 20 | ≤ 19 | ≤ 12 | ≤ 15 | at most 15% | at most 15% | ≤ 19 | ≤ 20 | 
3 | Cc1cc(C2=NC(C)(C)C(C)(C)Oc3ccccc32)cnc1C [Ex-3] | ≤ 1 | ≤ 20 | ≤ 19 | ≤ 12 | ≤ 15 | at most 15% | at most 15% | ≤ 19 | ≤ 20 | 
4 | Cc1cc(C2=NC(C)C(C)(C)Oc3ccccc32)cnc1C (centres unmarked) [Ex-11] | ≤ 1 | ≤ 20 | ≤ 19 | ≤ 12 | ≤ 15 |  | at most 15% | ≤ 19 |  | 
5 | Cc1cc(C2=NC(=O)C(C)(C)Oc3ccccc32)cnc1C(F)F [Ex-17] | ≤ 1 | ≤ 20 |  | ≤ 12 |  |  | at most 15% | ≤ 19 |  | 
6 | Cc1cc(C2=NCC3(CCCC3)Oc3ccccc32)cnc1C(F)F [Ex-18] |  | ≤ 20 |  | ≤ 12 |  | at most 15% |  | ≤ 19 |  | ≤ 20
7 | COc1ccc2c(c1F)OC(C)(C)C(=O)N=C2c1cnc(C(F)F)c(C)c1 [Ex-40] |  | ≤ 20 |  | ≤ 12 |  |  | at most 15% |  |  | 
8 | Cc1cc(C2=NC(C)C(C)(C)Oc3c2cccc3C(F)(F)F)cnc1C (centres unmarked) [Ex-50] | ≤ 1 |  |  |  |  |  |  |  |  | 
9 | Cc1cc(C2=NC(C)C(C)(C)Oc3c2cccc3C(F)(F)F)cnc1C(F)F (centres unmarked) [Ex-51] | ≤ 1 |  |  |  |  |  |  |  |  | 
